Patent US7442375B2, “Compositions of beta-defensin inducing agents” (Case Western Reserve University, priority 2002, dated 2008)
At least one peptide structure holds a part that was inferred or is arguable (an end, a ring closure or a residue). Positions of bridges follow the written chain, without caps; N, C: chain ends. No end group written: not given here.

By UniProt entry, the sequences of proteins in these tests, tags left out.
UniProt P61073, whole entry: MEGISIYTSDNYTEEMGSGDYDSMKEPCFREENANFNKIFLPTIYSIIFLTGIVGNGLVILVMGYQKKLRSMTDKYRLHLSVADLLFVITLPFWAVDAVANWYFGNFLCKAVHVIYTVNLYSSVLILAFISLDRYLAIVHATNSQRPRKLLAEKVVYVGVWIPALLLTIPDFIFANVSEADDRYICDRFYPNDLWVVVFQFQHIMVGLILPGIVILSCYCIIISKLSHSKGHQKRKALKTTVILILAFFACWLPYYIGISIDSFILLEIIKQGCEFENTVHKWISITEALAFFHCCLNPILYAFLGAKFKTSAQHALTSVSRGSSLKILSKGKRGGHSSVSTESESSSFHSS
UniProt P51681, whole entry: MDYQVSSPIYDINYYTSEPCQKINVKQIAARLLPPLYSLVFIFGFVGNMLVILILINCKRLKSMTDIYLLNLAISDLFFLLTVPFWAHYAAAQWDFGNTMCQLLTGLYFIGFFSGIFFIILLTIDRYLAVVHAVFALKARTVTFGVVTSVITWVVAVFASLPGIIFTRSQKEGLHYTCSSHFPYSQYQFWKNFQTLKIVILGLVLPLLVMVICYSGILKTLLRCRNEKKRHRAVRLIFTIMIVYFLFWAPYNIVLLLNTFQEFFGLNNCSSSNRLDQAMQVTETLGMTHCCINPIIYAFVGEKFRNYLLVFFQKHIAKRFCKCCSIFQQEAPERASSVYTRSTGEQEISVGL

How the values were obtained:
CEM X4/R5 cells = assay: Confocal microscopy, localisation of hBD on CEM X4/R5 cells; format: cell-based, human
Experimental: (§1) CEM X4/R5 cells were grown in RPMI-1640 medium containing 5% FBS and 400 μg/ml G418. Cells were collected, washed twice with PBS, resuspended in RPMI with 0.5% FBS or supplemented with 20 μg/ml recombinant hBD-2 or -3, and incubated at 37° C., 5% CO2 for 3 h. A second aliquot of cells, after incubation with hBD, was treated with FACS/Perm (PharMingen) at room temperature for 10 min and then washed three times with PBS. A third aliquot of cells was fixed in 1% paraformaldehyde on ice for 30 min, washed three times with PBS, and then incubated with 20 μg/ml hBD-2 or -3. Cells were stained with PE-labeled CXCR4 or CCR5 (PharMingen), or with primary goat anti-hBD-2 antibodies (Cell Sciences, Norwood, Mass., USA), or with rabbit anti-hBD-3 antibodies (Orbingen, San Diego, Calif., USA) at room temperature for 90 min, followed by washing three times with PBS. Fluorescein isothiocyanate-labeled rabbit anti-goat IgG (Jackson ImmunoResearch, West Grove, Pa., USA) for detection of hBD-2, or goat anti-rabbit IgG (Sigma) for detection of hBD-3, were added, respectively, at room temperature and incubated for 90 min. Cells were washed twice with PBS, resuspended in 1% paraformaldehyde (except for the pre-fixed cells), and stored at 48 C prior to analysis. All samples were observed using a dual scanning confocal microscope system (Zeiss LSM 510, Oberkochem, Germany) and analyzed with the Zeiss LSM 5 Image Browser.
To explore the mechanism of this effect, CEM X4/R5 cells were incubated with hBD-2 and -3 and then examined for surface expression of CXCR4 and CCR5 by confocal microscopy. […] Since chemokine receptors may internalize after ligation, CEM X4/R5 cells were first fixed with paraformaldehyde, then incubated with hBD-2 and finally labeled with anti-hBD-2 antibody. […] Finally, to visualize hBD-2 internalization, live CEM X4/R5 cells were incubated first with hBD-2, then permeabilized and incubated with anti-hBD-2 antibodies.

MT4 cellular membrane = assay: Immunogold transmission electron microscopy; format: binding, human; conditions: 20 μg/ml, 37° C., 1 h; anti-hBD antibody and 10-nm gold IgG
Experimental: (§2) (a) CXCR4 tropic HXB2 and CCR5 tropic 97ZA003 HIV-1 strains were incubated with 20 μg/ml hBD-1, -2, or -3 in 10 mM PB for 1 h. Virions were pelleted, washed extensively with PBS and used to infect GHOST X4/R5 cells. RT activity was measured 48 h post-infection. The final two columns represent an additional 20 μg/ml of hBD-2 or -3 during infection. (b) Immunoelectron microscopy analysis showing the interaction of hBD-2 and -3 with HIV-1 and with MT4 cell membrane. X4 HIV-1 HXB2 strain and MT4 cells were incubated with hBD-2 or -3 (20 μg/ml), 37° C., 1 h. Polyclonal anti-hBD-2 or -3 antibodies were added, followed by addition of secondary IgG conjugated with 10-nm gold particles. Arrows indicate hBD-2 and -3 localization to virions and cell membrane.
(§3) MT4 cells in RPMI, or X4 strain B-HXB2 viral particles in 10 mM phosphate buffer (PB), were incubated with 20 μg/ml hBD-2 and -3 at 37° C. for 1 h. Cells and virions were centrifuged (15 min, 1200 rpm for cells; 30 min, 35 000 3 g for virus) and washed twice with PBS to remove unbound hBD. Cells and virions were mixed and fixed with 4% paraformaldehyde/0.5% glutaraldehyde, dehydrated, embedded in LR WHITE resin (London Resin Company Ltd, Berkshire, UK), and labeled after embedding as described [Briquet et al.]. […]

HIV-1 X4 B-HXB2 [1] = format: cell-based; conditions: virus preincubated 1 h with hBD in 10 mM PB; GHOST cells 48 h; GFP fluorescence
Experimental: (§4) HIV-1 strains (X4 HXB2 and R5 93US142) were incubated in 10 mM PB with increasing concentrations of hBD and used to infect GHOST X4/R5 cells. (a) Qualitative determination of HIV-1 infection, measured by GFP fluorescence, in the absence (−C) and presence (+C) of virus preincubated in 10 mM PB. (b) Anti-HIV-1 activity of hBD in GHOST X4/R5 cells using fluorescence microscopy. (c) Anti-HIV-1 activity of hBD measured by RT activity in cell-free culture supernatant, relative to the positive control (i.e., HIV-1 infection in the absence of hBD). […]
(§5) HIV-1 isolates were incubated with increasing concentrations (5-40 μg/ml) of hBD-1, -2, and -3, in three different conditions: high salt complete medium (RPMI-1640 or DMEM supplemented with 10% fetal bovine serum, FBS); high salt medium in the absence of FBS; or low salt medium (10 mM phosphate buffer), 37° C. for 1 h. […] In the case of Ghost X4/R5 cells, these were washed, resuspended in PBS, and analyzed by fluorescence microscopy for GFP expression as described [Morner et al.]. […] Supernatant samples were removed on day 5 post-infection and virus production was measured using […] the RT assay [Id.]. Cytotoxicity of hBD was quantified by determining the number of viable cells using a tetrazolium-based colorimetric (MTT) assay [Pauwels et al.]. […]

HIV-1 R5 B-93US142 = format: cell-based; conditions: virus preincubated 1 h with hBD in 10 mM PB; GHOST cells 48 h; GFP fluorescence
Experimental: as §4, §5

HIV-1 B-HXB2 virions = assay: Immunogold transmission electron microscopy; format: binding; conditions: 20 μg/ml, 37° C., 1 h; anti-hBD antibody and 10-nm gold IgG
Experimental: as §2, §3

CXCR4 [2] = target: T1, CXCR4 (Homo sapiens, UniProt P61073); assay: Confocal microscopy of co-receptor surface expression on CEM X4/R5 cells; format: cell-based; parameters: endogenous in cells; conditions: 20 μg/ml, 3 h
Experimental: as §1, with “Cells were washed twice with PBS, resuspended in 1% paraformaldehyde (except for the pre-fixed cells), and stored at 48 C prior to analysis.” left out, “Browser. […]” for “Browser.”

CCR5 [3] = target: T2, CCR5 (Homo sapiens, UniProt P51681); assay: as above; format: cell-based; parameters: endogenous in cells; conditions: 20 μg/ml, 3 h
Experimental: as §1, with “Cells were washed twice with PBS, resuspended in 1% paraformaldehyde (except for the pre-fixed cells), and stored at 48 C prior to analysis.” left out, “Browser. […]” for “Browser.”

HIV-1 R5-C-97ZA003 = assay: hBD-virion interaction: virions incubated with hBD, pelleted, washed, used to infect GHOST X4/R5 cells; format: cell-based; conditions: 20 μg/ml in 10 mM PB 1 h; RT activity 48 h post-infection
Experimental: as §2
(§6) In order to verify a direct hBD-virion interaction, the X4 B-HXB2 and R5-C-97ZA003 HIV-1 strains was incubated with 20 μg/ml of each hBD in 10 mM PB for 1 h, followed by pelleting and extensive washing. Virions were then used to infect GHOST X4/R5 cells. […] To further define these interactions, MT4 cells, infected with the CXCR4 tropic B-HXB2, were incubated with hBD-2 or -3 in RPMI, followed by the addition of anti-hBD-2 or -3 antibodies and goat anti-rabbit IgG conjugated with 10-nm gold particles.

HIV-1 X4 B-HXB2 [4] = assay: as above; format: cell-based
Experimental: as §2, §6

CXCR4 [5] = target: T1, CXCR4; assay: Flow cytometric analysis of co-receptor surface expression on unstimulated PBMC; format: cell-based; parameters: endogenous in cells; host or cells: unstimulated peripheral blood mononuclear cells (PBMC); conditions: 30 μg/ml, 3 h, high salt medium without FBS
Experimental: (§7) Unstimulated PBMC were treated for 3 hrs with hBD-1, -2, or -3 (30 μg/ml) in DMEM (high salt) in the absence of FBS. The CXCR4 natural ligand SDF-1AE (2 μg/ml) and the CCR5 antagonist PSC-RANTES (100 nM) were used as positive controls. CXCR4 and CCR5 surface expression was calculated using known ratios of QuantiBRITE-PE beads (Becton Dickenson) by flow cytometry. Results are the means of seven experiments±SD.
(§8) Unstimulated PBMC were treated with 30 μg/ml hBD-1, -2, or -3 in high salt medium (RPMI-1640) in the absence of FBS, 3 h. The CXCR4 natural ligand SDF-1α (R&D Systems, Minneapolis, Minn., USA) and the CCR5 antagonist PSC-RANTES were used as controls. Cells were incubated with peridinin chlorophyll protein-conjugated anti-human CD4 antibody, and either phycoerythrin (PE)-conjugated anti-human CXCR4 antibody, PE-conjugated anti-human CCR5 antibody, or PE-conjugated mouse immunoglobulin G2a (IgG2a), isotype standard (PharmMingen, San Diego, Calif., USA) [Salkowitz et al.]. Fluorescence intensity was reported as receptor density by quantitative flow cytometry (FACSCaliber; Becton Dickenson, San Jose, Calif., USA) [Iyer et al.]. Data were analyzed using CELLQuest software (Becton Dickenson).
(§9) Surface expression of CXCR4 was decreased by 51%±18% and 52%±20% (SD) respectively after incubation with 30 μg/ml of hBD-2 or hBD-3 (FIG. 5).

CCR5 [6] = target: T2, CCR5; assay: as above; format: cell-based; parameters: endogenous in cells; host or cells: unstimulated peripheral blood mononuclear cells (PBMC); conditions: 30 μg/ml, 3 h, high salt medium without FBS
Experimental: as §7, §8, §9

“GIGDPVTCLKSGAICHPVFCPRRYKQIGTCGLPGTKCCKKP (disulfide 8-37, 15-30, 20-38) [hBD-2]” was tested, and the “binding of peptide to the cell membrane” value (CEM X4/R5 cells; cells first fixed with paraformaldehyde, then incubated with hBD) was “bound to the cell membrane”, the “detection of peptide on the cell surface” value (CEM X4/R5 cells; live cells incubated with hBD, then anti-hBD antibodies) was “failed to detect” and the internalization of peptide (CEM X4/R5 cells; live cells incubated with hBD, then permeabilized) was “staining pattern suggestive of internalization”. For the same sequence, the “gold particles bound to MT4 cellular membrane” value (MT4 cellular membrane) was “bound both to virions and to the MT4 cellular membrane”, the anti-HIV-1 activity (HIV-1 X4 B-HXB2 [1]) was “showed anti-HIV-1 activity” and the anti-HIV-1 activity (HIV-1 R5 B-93US142) was “showed anti-HIV-1 activity”. The “gold particles bound to virions” value (HIV-1 B-HXB2 virions) was “bound both to virions and to the MT4 cellular membrane”, the “surface expression of CXCR4” value (CXCR4 [2]) was “dramatically decreased” and the “surface expression of CCR5” value (CCR5 [3]) was “not”. The “anti-HIV-1 effect after pelleting and extensive washing of virions” value (HIV-1 R5-C-97ZA003) was “maintained after washing”, the “anti-HIV-1 effect after pelleting and extensive washing of virions” value (HIV-1 X4 B-HXB2 [4]; 20 μg/ml in 10 mM PB 1 h, RT activity 48 h post-infection) was “maintained after washing” and the “effect of subsequent addition of hBD to the cell-virus mixture” value (HIV-1 X4 B-HXB2 [4]; additional 20 μg/ml during infection, enhancement only against the CXCR4-tropic strain) was “enhanced anti-HIV-1 activity”. The “decrease of surface expression of CXCR4 (±SD)” value (CXCR4 [5]) was 51%±18% and the “effect on CCR5 expression” value (CCR5 [6]) was “not altered”.
